The other results are listed elsewhere or left out. Shown are side measurements of this screen, not its main read-out; they come without a call. Most of these compounds were active or inconclusive in the main read-out, so they are no random draw. Potencies come from curve fits of mixed quality, noted in brackets.
Experiment: qHTS Assay for Lipid Storage Modulators in Drosophila S3 Cells;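 for cell number change: cells counted by Cell Tracker Red CMTPX staining in the red channel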
Details: BODIPY lipid droplet fluorescence, 18-24 h; for cell number change: measured here: cell count max response, cells fed with added oleic acid
Procedure, shortened: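 Laser-scanning cytometry quantifies lipid droplet accumulation (500–530 nm total intensity; droplet/cell object ratio) in oleic acid-fed (400 uM added) Drosophila S3 cells treated with a concentration series. 20 uM Triacsin C defined 100% inhibition.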

[1] = measured here: lipid fluorescence (Fed channel) AC50, cells fed with added oleic acid
[2] = measured here: cell number channel AC50, cells fed with added oleic acid

Cc1cccc(OCC(=O)NNC(=O)CCc2ccccc2)c1
cell number change: 10.6%
AC50 [1]: 0.164 µM [rising, partial curve]

CCc1cc2c(=O)[nH]c(CC(N)=O)nc2s1
cell number change: -36%
AC50 [1]: 25.9 µM [falling, single point]

CCOC(=O)N1CCN(C(=O)C2CCN(c3ncnc4c3sc3cccc(F)c34)CC2)CC1
cell number change: -13.2%

CCOC(=O)N1CCN(c2c(NCCCOC(C)C)c(=O)c2=O)CC1
AC50 [1]: 0.651 µM [falling, single point]

Cc1ccc(-n2c(C)cc(/C=N/NC(=O)Cn3c4ccccc4c(=O)c4ccccc43)c2C)cc1
cell number change: -16.3%

O=C(Nc1cccc(S(=O)(=O)N2CCCCC2)c1)c1ccc2c(c1)OCO2
cell number change: -50%
AC50 [1]: 0.206 µM [rising, full curve, poor fit]

COC(=O)c1cccc2c1NC(=O)C2=O
cell number change: 14.2%
AC50 [2]: 0.0366 µM [rising, full curve, poor fit]
AC50 [1]: 0.00517 µM [rising, full curve, poor fit]

C/C(=N\NC(=O)c1nn(C)c(C)c1Br)c1ccc(NC(=O)c2ccoc2C)cc1
cell number change: -34.2%
AC50 [2]: 20.6 µM [falling, single point]
AC50 [1]: 29.1 µM [falling, single point]

CC1=C(C(N)=O)C(c2ccc(F)cc2)n2nc(CCCO)nc2N1 (configuration not stated)
cell number change: 20.4%

COc1ccccc1CNC(=O)c1cccc(S(=O)(=O)N2CCN(C)CC2)c1
cell number change: -2.6%
AC50 [2]: 2.06 µM [falling, single point]
AC50 [1]: 0.0058 µM [falling, partial curve, poor fit]

O=C(Nc1nccs1)c1cc2sccc2n1Cc1ccc(Cl)cc1
cell number change: -20.2%
AC50 [1]: 16.4 µM [rising, single point]

N#C/C(=C/c1ccncc1)c1nc2ccccc2c(=O)[nH]1
AC50 [1]: 1.84 µM [rising, partial curve]

COc1ccc(Cl)cc1NC(=O)CC(=O)Nc1cc(Cl)ccc1OC
cell number change: 58.1%
AC50 [2]: 29.1 µM [rising, single point]
AC50 [1]: 29.1 µM [rising, single point]

O=C(Cc1noc2ccccc12)Nc1ccccn1
cell number change: 52%
AC50 [2]: 29.1 µM [rising, single point]
AC50 [1]: 29.1 µM [rising, single point]

CCCc1cc2nnc(SCC(=O)N(C)C3CCCCC3)n2c(N)n1
cell number change: 7.83%
AC50 [1]: 0.366 µM [rising, full curve]

Cc1cccc(-c2noc(CCC(=O)NC3CCCCC3)n2)c1
cell number change: 39.9%
AC50 [2]: 7.31 µM [rising, full curve, poor fit]
AC50 [1]: 20.6 µM [rising, single point]

COc1cc(NC(=O)CN(C)S(=O)(=O)c2ccc(-c3ccc(=O)[nH]n3)s2)cc(OC)c1
cell number change: 41.2%
AC50 [2]: 18.4 µM [rising, single point]

Cc1ccc(-n2nc(C)c3c(C)c(CCC(=O)NCC4CCCO4)c(=O)n(C)c32)cc1 (configuration not stated)
cell number change: 3.99%

N/C(=N\OC(=O)CC1CCCCC1)c1ccncc1
cell number change: 21.5%
AC50 [1]: 6.51 µM [rising, partial curve]

CCSc1nnc(NC(=O)C2CC(=O)N(Cc3ccccc3)C2)s1 (configuration not stated)
cell number change: 38.1%
AC50 [2]: 23.1 µM [rising, single point]
AC50 [1]: 20.6 µM [rising, single point]

O=C(NCc1cccc(Cl)c1)C1CCC(=O)N(CCCN2CCOCC2)C1 (configuration not stated)
cell number change: 15.1%
AC50 [1]: 6.51 µM [rising, single point]

CCCOc1c(Cl)cc(C(=O)NC)cc1OC
cell number change: -20.2%
AC50 [2]: 0.058 µM [falling, full curve, poor fit]
AC50 [1]: 0.651 µM [falling, partial curve, poor fit]

Cc1cc(C)cc(NC(=O)CSc2nnc(C3CC3)n2CC2CCCO2)c1 (configuration not stated)
AC50 [1]: 3.66 µM [rising, partial curve]

COC(=O)c1ccc(NC(=O)Nc2ccc(F)c(Cl)c2)cc1
cell number change: -64.1%
AC50 [2]: 20.6 µM [falling, partial curve]

COc1cccc(OC(=O)c2cc3ccccc3oc2=O)c1
cell number change: -9.16%
AC50 [2]: 1.16 µM [rising, full curve]

CCN(CC)c1ccc(C2N(C(=O)N3CCOCC3)CCN2S(=O)(=O)c2ccc(C)cc2)cc1 (configuration not stated)
cell number change: 17.6%
AC50 [1]: 0.58 µM [rising, single point]

Cc1ccccc1C(=O)Nc1ccnc(-c2ccncc2)n1
cell number change: 34.7%

CCC1CCCCN1Cc1ccc(OC)c(C)c1C (configuration not stated)
cell number change: -77.6%
AC50 [2]: 16.4 µM [falling, partial curve]

CCO/N=C/C(=O)Nc1ccc(F)cc1F
cell number change: -21%
AC50 [1]: 29.1 µM [falling, single point]

Cc1ccc(Cn2c(=O)n(C)c(=O)c3sccc32)cc1
cell number change: -12.5%
AC50 [1]: 1.3 µM [rising, full curve]

Cc1ccc(C)c(OCC(=O)N/N=C/c2c(C)nn(-c3ccccc3)c2Cl)c1
cell number change: -19.9%
AC50 [2]: 3.66 µM [rising, partial curve, poor fit]
AC50 [1]: 0.13 µM [rising, full curve, poor fit]

CCOC(=O)c1c(C)cc(=O)oc1C
cell number change: -71%
AC50 [2]: 32.6 µM [falling, partial curve]
AC50 [1]: 20.6 µM [falling, partial curve]

CCOc1ccccc1CNc1nc2nc3c(c(=O)n2[nH]1)CCC3
cell number change: 3.52%
AC50 [1]: 6.51 µM [falling, single point]

CC(=Nc1ccccc1)C1=C(O)CSC1=O
cell number change: 7.11%

CN(CC(=O)Nn1cnnc1)S(=O)(=O)c1ccc(Br)cc1
cell number change: -7.67%

CCOc1ccc(/C=N/N2C(C)CCCC2C)cc1 (configuration not stated)
cell number change: -21.3%

Cc1sc(NC(=O)CCS(=O)(=O)c2ccccc2)c(C#N)c1C
AC50 [1]: 0.13 µM [rising, full curve, poor fit]

CCC(=O)N1CCN(c2ccc(Cl)cc2NC(=O)c2cccc([N+](=O)[O-])c2)CC1
cell number change: -1.92%
AC50 [1]: 0.731 µM [rising, single point]

O=c1ccc2cc(S(=O)(=O)N3CCN(c4ccccc4)CC3)ccc2o1
AC50 [1]: 3.66 µM [falling, partial curve]

COCC(C)NC(C(=O)Nc1ccc(C)c(Cl)c1)c1ccccc1 (configuration not stated)
cell number change: 146%

CCc1nc(SCc2cccnc2)[nH]c(=O)c1C
cell number change: -51.6%
AC50 [2]: 29.1 µM [falling, partial curve, poor fit]

CCOc1cc(-c2sc(Nc3ccccc3)n[n+]2C)ccc1OC
cell number change: -26.9%

COC(=O)c1c(S(=O)(=O)N2CCOCC2)c(C)n(C)c1C
cell number change: 16.9%
AC50 [1]: 25.9 µM [rising, single point]

C=CCN(C(=O)c1cccc(C(F)(F)F)c1)C1(C(=O)Nc2ccccc2)CCN(C(C)C)CC1
cell number change: -31.2%
AC50 [1]: 0.0058 µM [falling, full curve, poor fit]

COc1ccc(NS(=O)(=O)c2cccc(C(=O)NCC3CCCO3)c2)cc1 (configuration not stated)
AC50 [1]: 29.1 µM [rising, single point]

CCN(CC)CCNS(=O)(=O)c1ccc2c3c(cccc13)C(=O)N2
cell number change: -7.97%
AC50 [1]: 6.51 µM [rising, single point]

COc1ccc(CCNC(=O)c2cc(Cl)nc3ccccc23)cc1
cell number change: 4.32%
AC50 [1]: 0.13 µM [rising, full curve, poor fit]

COc1ccc(/C=C(\NC(=O)c2ccccc2)C(=O)NCCN2CCOCC2)cc1
cell number change: 2.1%

CN(C)C(=O)N1CCCC(C(=O)NCc2cccs2)C1 (configuration not stated)
cell number change: -86.5%
AC50 [2]: 29.1 µM [falling, partial curve]
AC50 [1]: 7.31 µM [falling, partial curve]

Nc1nnc(COc2ccc(Br)cc2Br)s1
cell number change: -7.05%

O=C(NC1CCCCC1)C1CCC(CNS(=O)(=O)c2cccc3nsnc23)CC1 (configuration not stated)
cell number change: 24%

CCOc1ccc2c(C)c(C)c(=O)oc2c1OCC
AC50 [1]: 6.51 µM [rising, single point]

CCOC(=O)c1ccccc1NC(=O)CN1C(=O)c2ccccc2S1(=O)=O
cell number change: 0.406%
AC50 [1]: 18.4 µM [rising, single point]

Cc1ccccc1NS(=O)(=O)c1ccc(OCCNS(C)(=O)=O)cc1
cell number change: 16.1%

CCNC(=S)N1CCN(S(=O)(=O)c2ccc(C)cc2)CC1
AC50 [2]: 0.461 µM [falling, partial curve]
AC50 [1]: 4.61 µM [falling, single point]

COc1cc2c(cc1NC(=O)COC(=O)C(CCSC)NC(=O)c1ccccc1Cl)oc1ccccc12 (configuration not stated)
cell number change: -16.5%

Cc1ccc(S(=O)(=O)N2CCN(C(=O)N(c3ccccc3)c3ccccc3)CC2)cc1
cell number change: 54.8%
AC50 [2]: 5.17 µM [rising, partial curve, poor fit]

Oc1ccc(/C=N/Nc2ncc(Br)cn2)c(O)c1
cell number change: -22.5%
AC50 [1]: 6.51 µM [falling, single point]

Cc1cc(C)c(C)c(OCCCCN(C)Cc2ccccc2)c1
cell number change: -16.1%
AC50 [1]: 18.4 µM [falling, single point]

CC12CC(NC(=O)N1CCc1ccccc1)c1ccccc1O2 (configuration not stated)
cell number change: -31%
AC50 [2]: 13 µM [falling, single point]

Fc1ccccc1N1CC(c2ccccc2)C(c2cccs2)=N1 (configuration not stated)
cell number change: 3.24%
AC50 [1]: 0.184 µM [rising, full curve, poor fit]

c1ccc(Nc2cccc(Nc3ccccc3)n2)cc1
cell number change: -125%
AC50 [2]: 29.1 µM [falling, single point]

CCc1ccc2[nH]cc(C(=O)OCCOC)c(=O)c2c1
cell number change: 3.9%
AC50 [1]: 0.461 µM [falling, full curve, poor fit]

O=C(COc1ccccc1Cl)Nc1nc(-c2cccs2)cs1
cell number change: -18%
AC50 [1]: 16.4 µM [falling, partial curve, poor fit]

From PubChem BioAssay AID2685 (National Center for Advancing Translational Sciences (NCATS), 2010)
